Measured values reported in the supplement of paper PMC5355238.
Structures can show the parent of a compound that is named as a salt. This is one part of the list. Most values lie at the level of the controls, where differences are scatter.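 Reh, a human leukemia cell line, is read out by flow cytometry as the median γH2AX antibody signal in S-phase cells; the score counts standard deviations from the median difference of each paired plate set. Scores above 2.5 were candidate hits; scores below -2 mark compounds lowering MK1775-induced damage.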

These compounds were tested on Reh (assay: Z' of S-phase gammaH2AX difference (drug + MK1775 minus drug alone) (Z-score); higher = stronger synergistic S-phase DNA damage with MK1775). Settings: MK1775 concentration 400 nM; first compound 10 µM; 4 h.

Row | Compound | Z' of S-phase gammaH2AX difference (Z-score)
1 | N[C@H]1CONC1=O [L-Cycloserine] + C=CCn1c(=O)c2cnc(Nc3ccc(N4CCN(C)CC4)cc3)nc2n1-c1cccc(C(C)(C)O)n1 [MK1775] | inactive: 0.19
2 | COc1cc2nc(N3CCN(C(=O)C4COc5ccccc5O4)CC3)nc(N)c2cc1OC (stereo not given) [Doxazosin mesylate] + C=CCn1c(=O)c2cnc(Nc3ccc(N4CCN(C)CC4)cc3)nc2n1-c1cccc(C(C)(C)O)n1 [MK1775] | inactive: -0.318
3 | OC[C@H]1O[C@@H](n2cnc3c(N[C@H]4CC5CCC4C5)ncnc32)[C@H](O)[C@@H]1O (stereo not given in full) + C=CCn1c(=O)c2cnc(Nc3ccc(N4CCN(C)CC4)cc3)nc2n1-c1cccc(C(C)(C)O)n1 [MK1775] | inactive: 0.993
4 | CCOC(=O)[C@@H](C)Oc1cccc2c(=O)n(CC(=O)Nc3ccc4c(c3)OCCO4)ccc12 + C=CCn1c(=O)c2cnc(Nc3ccc(N4CCN(C)CC4)cc3)nc2n1-c1cccc(C(C)(C)O)n1 [MK1775] | inactive: -0.0318
5 | c1cc(CN2CCCCC2)cc(OCCCNc2nc3ccccc3s2)c1 + C=CCn1c(=O)c2cnc(Nc3ccc(N4CCN(C)CC4)cc3)nc2n1-c1cccc(C(C)(C)O)n1 [MK1775] | inactive: 0.296
6 | CCN(CC)CCNC(=O)c1ccc(N)cc1 [Procainamide hydrochloride] + C=CCn1c(=O)c2cnc(Nc3ccc(N4CCN(C)CC4)cc3)nc2n1-c1cccc(C(C)(C)O)n1 [MK1775] | inactive: 0.539
7 | CCOC(=O)C1=C(C)NC(=S)NC1c1cccc(O)c1 (stereo not given) [Monastrol] + C=CCn1c(=O)c2cnc(Nc3ccc(N4CCN(C)CC4)cc3)nc2n1-c1cccc(C(C)(C)O)n1 [MK1775] | inactive: -0.558
8 | CC[C@H]1OC(=O)[C@H](C)[C@@H](O[C@H]2C[C@@](C)(OC)[C@@H](O)[C@H](C)O2)[C@H](C)[C@@H](O[C@@H]2O[C@H](C)C[C@H](N(C)C)[C@H]2O)[C@](C)(O)C[C@@H](C)CN(C)[C@H](C)[C@@H](O)[C@]1(C)O [Azithromycin (Zithromax)] + C=CCn1c(=O)c2cnc(Nc3ccc(N4CCN(C)CC4)cc3)nc2n1-c1cccc(C(C)(C)O)n1 [MK1775] | inactive: 0.629
9 | OCCn1cc(-c2ccc3c(c2)CC/C3=N\O)c(-c2ccncc2)n1 + C=CCn1c(=O)c2cnc(Nc3ccc(N4CCN(C)CC4)cc3)nc2n1-c1cccc(C(C)(C)O)n1 [MK1775] | inactive: -0.0037
10 | COc1ccc2c(c1)c(CC(=O)O)c(C)n2Cc1ccc(F)cc1 [1-(4-Fluorobenzyl)-5-methoxy-2-methylindole-3-acetic acid] + C=CCn1c(=O)c2cnc(Nc3ccc(N4CCN(C)CC4)cc3)nc2n1-c1cccc(C(C)(C)O)n1 [MK1775] | inactive: 0.935
